Results as given in PMC10163288.
Some of the results follow.

B1: il10ra_site1_sap_32_mot_HHH_b1_03094_000000294_0001_1_20_H_._HHH_b2_05552_0001_0000400045_0000001_0_0001 (protein)
chain: SSSSDEEEELEELLREIKELLEEGNPEEAFKLLLRALRLAYRTGDEEVLQELWELAKEVASSSSS
B2: il10ra_site1_normal_mot_HHH_b1_02492_000000051_0001_1_21_H_._HHH_b1_05494_0001_0000500037_0000001_0 (protein)
chain: SSSSSDRADRIYELLRRIIELIREGDEEEARELLEEVEELVEEANNDTLRFVLRFLKRELSSSSS
B3: il10ra_site1_sap_27_mot_HHH_b1_05870_000000031_0001_1_20_H_._HHH_b2_06019_af2_0001_0000100004_0000001_0_0001 (protein)
chain: SSSSSDIEELLREAEELAEEGDPEEAARLLLEALKLIYERQDKELLQELWEVVRRVAEISSSSSS
B4: il10ra_site1_sap_15_mot_HHH_b2_01447_af2_000000258_0001_1_20_H_._HHH_b2_01538_af2_0001_0000900031_0000001_1_0001_af2pred_0001 (protein)
chain: SSSSDARRDVRLALRLVELLVRQGDDEEAEKLVEWIEKLLRRNGDPEVEELLKEAEKLLNSSSSS
B5: il10ra_site1_sap_18_mot_HHH_b2_02497_000000141_0001_1_20_H_._HHH_b1_08018_0001_0001300072_0000001_0_0001 (protein)
chain: SSSSSEEEVERLLEEAQRAIEEGDPEEAAQLLFRAMRLAYESNNEELWEKVIRVAAEVWEASSSS
B6: il10ra_site1_sap_13_mot_HHH_b1_07641_af2_000000285_0001_1_21_H_._HHH_b1_00627_af2_0001_0000500024_0000001_0_0001_af2pred_dldesign_0_af2pred (protein)
chain: SSAEEARAALERARELAEEKKNEKLLAAVDYYLKDLDYAVSHNDEEAIALVLHAARALLEILEES
B7: il10ra_site1_normal_mot_HHH_b2_04680_000000215_0001_1_16_H_._HHH_b1_00201_af2_0001_0000300029_0000001_0 (protein)
chain: SSSSNEENREAYELLRKAFELLQQGNPEEARELLEEAEELARKGGNHALEFAIRLLLEQLSSSSS
B8: il10ra_site1_sap_13_mot_HHH_b1_00682_000000211_0001_1_20_H_._HHH_b1_00625_0001_0000200017_0000003_0_0001 (protein)
chain: SSSSDEYVELTIRFARWLIKAGDKEAAERMLKAAKEMAEKDNDDELLRRLEELEEEIEELSSSSS
B9: il10ra_site1_normal_mot_8756ee2cf497b5429c717dfc0c0bcfd6_0001_000000186_0001_1_13_H_._HHH_b2_03301_0001_0000400029_0000002_0 (protein)
chain: SSSSSESEEVAELLRRASELITEGNPEEAREVLEQARELIEELGNDVLRVQLEYLERELESSSSS
B10: il10ra_site1_sap_23_mot_9c3e5e2d2b9ffb70dc788f52fbfab6d5_0001_1_000000198_0001_1_14_H_._HHH_b1_00922_0001_0001300058_0000001_0_0001_af2pred_0001 (protein)
chain: SSSSNEELKELLKLIREAAELLFEGNPEEARKLIKEAQELAEELGDTTAKVILEFLEKQANSSSS
B11: il10ra_site1_sap_24_mot_HHH_b1_02665_000000293_0001_1_18_H_._HHH_b2_00244_0001_0000100001_0000001_0_0001_af2pred_0001 (protein)
chain: SSSSDSRELIRLLRRALELLNDGNPEEAEKLLERAQEIAEEANSLNLRVVIEFVLEQVEQHSSSS
B12: il10ra_site1_sap_15_mot_HHH_b1_03327_000000294_0001_1_19_H_._HHH_b1_05077_0001_0000200007_0000001_0_0001 (protein)
chain: SSSSDLYELSRKAAELSHEGNPEEAREVAEEAFEIAEEKGNRILLWTIEWLIERIRKLLNSSSSS
B13: il10ra_site1_normal_mot_6bb093d23f5042b6c551c363657da53b_0001_1_000000153_0001_51_65_H_._HHH_b2_06805_af2_0001_0000200011_0000001_0_af2pred_dldesign_0_af2pred (protein)
chain: SSSSSTEEKTAELKKKIEELLKAGNEEELREQLREAARFALETKDSELIKLVIEAAEKLESSSSS
B14: il10ra_site1_normal_mot_HHH_b1_00666_000000226_0001_43_56_H_._HHH_b2_00187_af2_0001_0000100008_0000001_0 (protein)
chain: SSSSSSDEEEEEVRELLEEAEKIEDQEEANRVLQEAVRLVMELGNEELLRLLWEAVLKLSSSSSS
B15: il10ra_site1_normal_mot_HHH_b1_04573_000000273_0001_43_57_H_._HHH_b2_00873_0001_0000400017_0000002_0_af2pred_0001 (protein)
chain: SSSSSSEFEEEVEELLEQAKRIPNPQERTRLLREAAELAAELGNPELLRLVLEVAQEILSSSSSS
B16: il10ra_site1_normal_mot_b26a303360aa2756ef5b79665ce52f45_0001_000000179_0001_1_11_H_._HHH_b2_05971_0001_0000300035_0000001_1_af2pred_0001 (protein)
chain: SSSSSSVERLFELSRRAAELAFKGDREEAREVLEEAKELAEELGDLNTLHNLEHLERNINSSSSS
B17: il10ra_site1_sap_21_mot_HHH_b2_06979_000000158_0001_42_57_H_._HHH_b1_00540_af2_0001_0000100003_0000001_0_0001 (protein)
chain: SSSTLTERIYKLSEKALELLKQGDTEEAEEVVEEAIELAEEAGSRVLAHVLEFLLEAIKRRSSSS
B18: il10ra_site1_normal_mot_HHH_b1_05326_000000242_0001_1_20_H_._HHH_b1_03012_af2_0001_0000200011_0000001_0 (protein)
chain: SSSSDEELQEALELSLEAFRLLLRGNEEEAKEVLEKAEELLEKAGDPRLLRAVRDLLQVISSSSS
B19: il10ra_site1_sap_25_mot_HHH_b1_02208_000000160_0001_1_19_H_._HHH_b2_05740_af2_0001_0000700026_0000002_0_0001 (protein)
chain: SSSSDMEEELIEALLRLLEQAIELGNEEHARRLIEAVRLAIERNNDEEAEERLRELEERLKSSSS
B20: il10ra_site1_sap_11_mot_HHH_b2_06321_af2_000000133_0001_42_55_H_._HHH_b1_01516_0001_0000300019_0000001_0_0001 (protein)
chain: SSSSSADEWYELLRRAIELAKEGNPEEARELLKEAEEIARELNSKVAELLIEFVEKEVEKASSSS
B21: il10ra_site1_normal_mot_HHH_b1_02809_af2_000000277_0001_40_57_H_._HHH_b1_02735_0001_0000400019_0000001_0 (protein)
chain: SSSSSDEEARRTARFLLRAAKQVPDPEKRELALRFALRLAREGNDPELEEEIEELLEQLGSSSSS
B22: il10ra_site1_sap_25_mot_HHH_b1_01082_af2_000000031_0001_3_19_H_._HHH_b1_02874_0001_0000300019_0000001_0_0001_1 (protein)
chain: SSSSDEEVEKLIHQAIELLIRGNPEEAEKVLEEARELAEKLGDPRLEELIELLLKMIEDAGSSSS
B23: il10ra_site1_sap_16_mot_HHH_b1_00814_af2_000000078_0001_43_57_H_._HHH_b2_04839_af2_0001_0000200006_0000001_0_0001 (protein)
chain: SSSSDESHELAVRAVLRAARLFIRGNPEEAERLLEEVLKELRELGDEEAEEVIERALEVFKSSSS
B24: il10ra_site1_sap_15_mot_HHH_b2_02354_af2_000000157_0001_40_56_H_._HHH_b1_07270_0001_0000500051_0000001_1_0001 (protein)
chain: SSSSSEQERAALRFAKWLIEIIEETGNPSARRSLEVMLWLLERINSEEAEELLKEAEELLSSSSS
B25: il10ra_site1_normal_mot_HHH_b2_08186_000000021_0001_43_56_H_._HHH_b1_08292_af2_0001_0000100002_0000002_0 (protein)
chain: SSSSSSEEEEEVRELLEELEKIKDHEEFLRLAQEILRLIFELGNDELLKRLWEILKRSHSSSSSS
B26: il10ra_site1_sap_25_mot_HHH_b2_03220_af2_000000223_0001_23_40_H_._HHH_b2_05514_af2_0001_0000300004_0000001_0_0001 (protein)
chain: SSSSDEAREEIWELIRKALELRAEGNPEEAERLLEEARELAEENNSWVFLHAIEHLLRAIRSSSS
B27: il10ra_site1_normal_mot_e1dd4851c59bc1cdde016f988f6856bd_0001_1_000000200_0001_16_31_H_._HEEHE_2724_af2_0001_0000100003_0000001_0_af2pred_dldesign_0_af2pred (protein)
chain: SKLDRFRLGVAAAAETAGVSDVTVTEKDGVVIVTINANTPQAEELKNMVEYLAEKLDIKVEVVIK
B28: il10ra_site1_sap_17_mot_HHH_b2_02497_000000141_0001_1_20_H_._HHH_b2_05869_0001_0000200022_0000001_0_0001 (protein)
chain: SSSSDEEIRERVEELLEQAEETDDADEAYELLREAIELASEGRDPELLELVMEIIRRWLRSSSSS
B29: il10ra_site1_sap_22_mot_HHH_b1_06789_af2_000000041_0001_1_20_H_._HHH_b2_06526_0001_0000400019_0000001_0_0001 (protein)
chain: SSSSSREEVLRLIIRAIRALFRGDPEEARELVEEAHEIARENNDPDLERAVEILRRAVEAASSSS
B30: il10ra_site1_sap_16_mot_HHH_b2_06857_af2_000000179_0001_42_54_H_._HHH_b2_07872_af2_0001_0000100004_0000002_0_0001 (protein)
chain: SSSSSDRQELIELIEEVLELLIRNDEEHLRELLKEALEIAEELGDERAAHVLEDLLKLVGSSSSS
B31: il10ra_site1_sap_14_mot_HHH_b1_02397_af2_000000085_0001_39_57_H_._HHH_b2_01571_af2_0001_0001400005_0000001_0_0001 (protein)
chain: SSSSDERDELSRLVYEASRAAFEARSEEEREEIKELLERLLEEVPDPAMQSVLRIAIRELSSSSS
B32: il10ra_site1_normal_mot_HHH_b2_00612_000000251_0001_1_14_H_._HHH_b2_04913_0002_0000500043_0000001_0_af2pred_0001 (protein)
chain: SSSSSEATRLAREALKLLLELAEEGDPEEVERLAEEVKEELEELGNELAARQIEFAAKRLKSSSS
B33: il10ra_site1_sap_19_mot_HHH_b2_03529_000000059_0001_37_51_H_._HHH_b1_07155_0001_0000100004_0000001_0_0001 (protein)
chain: SSSSDQEFYERVEEAIKRAIELQRNGNPEEAEELLEEILRLAEEEGNWAVRFAIRHLLRLLSSSS
B34: il10ra_site1_sap_17_mot_HHH_b1_07369_af2_000000079_0001_1_18_H_._HHH_b1_01560_0001_0000100001_0000001_0_0001 (protein)
chain: SSSSYEEVKRLIEEIIRALREGNPEEARELLEELERLAEERNDPALRFAVELLERAIRRASSSSS
B35: il10ra_site1_sap_17_mot_HHH_b1_06789_af2_000000041_0001_1_20_H_._HHH_b1_04601_0001_0000700049_0000002_0_0001_af2pred_0001 (protein)
chain: SSSSSDEEFERLVEELLEEAKHIEDPDELSYVLIRAFAIANEGRDPELKELVEEVAQELISSSSS
B36: il10ra_site1_sap_25_mot_HHH_b2_01776_000000118_0001_38_52_H_._ems_3hC_921_0001_0000200020_0000001_0_0001 (protein)
chain: SSSSYEEVKKLIEEIIRLAREGNPEEAEKVLEELERLAEELNNPSVRFVVELLKEAIRAHSSSSS
B37: il10ra_site1_normal_mot_HHH_b1_00999_000000080_0001_41_55_H_._HHH_b1_00039_af2_0001_0000100003_0000001_0 (protein)
chain: SSSSSSDISELAQEALRFAFRLGDEEVLRAIWELVKKWGREGDPRYEEELEELLEELRSSSSSSS

target: il10ra, Q13651; experiment: yeast display titration

Binder	apparent Kd
B1	inactive: no binding seen
B2	inactive: no binding seen
B3	inactive: no binding seen
B4	inactive: no binding seen
B5	inactive: no binding seen
B6	inactive: no binding seen
B7	inactive: no binding seen
B8	inactive: no binding seen
B9	inactive: no binding seen
B10	inactive: no binding seen
B11	inactive: no binding seen
B12	inactive: no binding seen
B13	inactive: no binding seen
B14	inactive: no binding seen
B15	inactive: no binding seen
B16	inactive: no binding seen
B17	inactive: no binding seen
B18	inactive: no binding seen
B19	inactive: no binding seen

Binder	apparent Kd
B20	inactive: no binding seen
B21	inactive: no binding seen
B22	inactive: no binding seen
B23	inactive: no binding seen
B24	inactive: no binding seen
B25	inactive: no binding seen
B26	inactive: no binding seen
B27	inactive: no binding seen
B28	inactive: no binding seen
B29	inactive: no binding seen
B30	inactive: no binding seen
B31	inactive: no binding seen
B32	inactive: no binding seen
B33	inactive: > 1.5 µM
B34	inactive: no binding seen
B35	inactive: no binding seen
B36	inactive: no binding seen
B37	inactive: no binding seen

An excerpt taken from the entries so far, as a working copy:
Binder	apparent Kd
B24	inactive: no binding seen
B25	inactive: no binding seen
